Results as given in article PMC12116771.
Construct, isoform or probe ends are uncertain for at least one entry. A weaker result is weaker than the reference pair of the same experiment.

Amino acid sequences for entries named in this document (tags omitted). A change or cut given only in a name is not applied to a line headed by its entry.
UniProt P45978: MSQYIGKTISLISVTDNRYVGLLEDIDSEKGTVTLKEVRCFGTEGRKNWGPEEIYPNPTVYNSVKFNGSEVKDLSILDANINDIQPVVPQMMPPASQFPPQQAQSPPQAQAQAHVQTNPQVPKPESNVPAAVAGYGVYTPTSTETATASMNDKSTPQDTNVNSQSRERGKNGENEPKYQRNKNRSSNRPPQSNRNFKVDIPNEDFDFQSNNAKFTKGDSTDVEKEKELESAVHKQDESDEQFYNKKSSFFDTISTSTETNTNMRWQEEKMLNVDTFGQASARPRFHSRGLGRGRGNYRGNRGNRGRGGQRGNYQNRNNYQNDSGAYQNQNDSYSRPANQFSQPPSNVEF

Target: Scd6 (His-Scd6-FLAG, unmethylated) (Saccharomyces cerevisiae) (UniProt P45978)
Assay: EMSA
Details: 1.7 uM RNA, protein 0.26-1.1 uM, EMSA: 10 mM Tris pH 8, 50 mM NaCl, 0.05% NP-40, 6% glycerol, 1 mM DTT, 2 ug/ml BSA, 0.5 ug/ml tRNA, 30 C 30 min, 2.5% agarose, 1x MOPS, EtBr, recombinant protein, protein details: N-term His, label: none (EtBr stain), probe letters rebuilt from the primers and the genome

Sequence	binding result (shift seen, significantly less than 5'UTR)	binding result (more binding than 3'UTR)
GGGAAAAUUAAACAACGGUGAAAUCAUAGUCAUCGAUUAGUAGCACUUUCAUGCCUGACUACGUCAACUAUUGGAGGCGGUUUAUAAUUUUUAUUUAAAGCACAUAGGAGUUAAUUUUAUUUUACUGGUAGGGUUUGUAUACGAACUACAUGGAAAUGUGGAUGGUGUGUUAUUAUAGCUUAAUGAAUAUUCUUUUUCUAUAC [SRS2 3'UTR 200-mer RNA]	binds more weakly	
GGGGGCAGAAUAGGGCUCCACUCCGUGCCCAAUUUGACCUGGAUUUUCCACCAGUUUACAUGAAUUUCCCCGCUUACUUUUUGGAAGCACCUUCUUUAGUUCGGGAACUACUAUAUUUGAAGGCAUUGCCAAACCUAUUCACAUUUAAUGACUUUGCUAUCCUAGUAAGACAACGAAGACAAAUUAAAAGGAUCGAAAGUGCA [SRS2 5'UTR 200-mer RNA]		binds
